The test system of this test is BDF1 mice, C1498 leukemia ip, median survival T/C. The test can be described thus: NCI In Vivo Anticancer Drug Screen. Data for tumor model C1498 Myeloid Leukemia (intraperitoneal) in B6D2F1 (BDF1) mice. The conditions noted are these: T/C endpoint: median survival time, schedule: Q01DX010 (ip), vehicle: saline, higher T/C = longer survival. The protocol: The antitumor activity of compounds was measured in mice bearing transplantable tumors. Survival or tumor size were measured and the results are expressed as the measurement made in the treated group (T) divided by the measurement made in the vehicle treated control group (C). The tumor model used in this assay is C1498 Myeloid Leukemia (intraperitoneal) in B6D2F1 (BDF1) mice

The list does not hold the whole screen: its compounds were picked by chemical class. Not every dose and run of a compound is shown. T/C: endpoint of the treated group in % of that of the vehicle group. Where survival is the endpoint, this PubChem deposit counts one and a half times the control or more as active, and values a quarter to a half above the control carry no call in these data; other NCI protocols may use other cut-offs. Schedules are NCI's codes, taken here to give the interval after Q, in days (D) or hours (H), and the number of doses after X.

As to `CC[C@@H](C)[C@@H]1NC(=O)/C(=C(\C)O)C1=O.c1ccc(CNCCNCc2ccccc2)cc1`, the T/C is 109 % of control (dose: 10.0 mg/kg/injection), 104 % of control (dose: 14.0 mg/kg/injection), 100 % of control (dose: 20.0 mg/kg/injection) and 100 % of control (dose: 30.0 mg/kg/injection).

For `Cc1[nH]c(=O)[nH]c(=O)c1N(CCCl)CCCl`, the T/C was 109 % of control (dose: 0.25 mg/kg/injection), 113 % of control (dose: 0.5 mg/kg/injection), 131 % of control (dose: 1.0 mg/kg/injection) and 127 % of control (dose: 2.0 mg/kg/injection).

For the compound `NC1CCCCC1.O=P(O)(N(CCCl)CCCl)N1CC1`, the T/C (dose: 2.5 mg/kg/injection) is 109 % of control, the T/C (dose: 5.0 mg/kg/injection) is 109 % of control, the T/C (dose: 10.0 mg/kg/injection) is 122 % of control and the T/C (dose: 20.0 mg/kg/injection) is 163 % of control.

These data come from PubChem BioAssay AID312 (DTP/NCI, 2004).
